From PubChem BioAssay AID1347131 (National Center for Advancing Translational Sciences (NCATS), 2019)
The whole screen tested about 410,000 compounds, of which about 2,000 (0.49%) were called active. This list was built around the results that the source calls inconclusive (neither active nor inactive); the mix of calls is not that of the screen. The call rests on the fitted dose curve; tested in HEK293 reporter line. A potency beside an inconclusive call is a rough fit, not a confirmed value.
Potency means the concentration at half of the fitted maximal effect.

Assay: qHTS Assay for Foot and Mouth Disease Virus Antivirals: Primary Screen against the MLPCN compound library; further: nearly all actives have a fitted effect of over 55% in size
Details: FMDV antiviral cell-based qHTS; activity, negative = inhibition: at 57.9 µM (top of the series)
For `c1csc(-c2nnsc2-c2nc3ccccc3[nH]2)c1`, the Potency was inconclusive: 25.1 µM [inhibitor, partial curve, poor fit].
In the case of `CCNc1ccc(Br)cc(C(=O)/C=C/c2c(Cl)cccc2Cl)c1=O`, the Potency is reported as inconclusive: 31.6 µM [inhibitor, partial curve, poor fit].
With `COc1ccc(CNC(=O)c2sc(=O)n(Cc3ccc(C)cc3)c2C)cc1OC` the Potency was inconclusive: 25.1 µM [inhibitor, partial curve, poor fit].
With `CC(C)c1nnc(NC(=O)c2nc(S(=O)(=O)Cc3ccccc3)ncc2Cl)s1` the Potency was inconclusive: 35.5 µM [inhibitor, partial curve, poor fit].
In the case of `COC(=O)CC(NS(=O)(=O)c1cccs1)c1ccc2c(c1)OCO2` (centres undefined), the Potency is reported as inconclusive: 12.6 µM [inhibitor, partial curve, poor fit].
With `Cn1c(=O)c([N+](=O)[O-])c(-n2ccnc2)c2ccccc21` the Potency was inconclusive: 31.6 µM [inhibitor, partial curve, poor fit].
With `COc1ccc2c(c1)OC[C@H]1[C@H]2N2C(=O)c3cc(OC)ccc3NC(=O)[C@@]2(C)[C@H]1c1ccccc1` the Potency was inconclusive: 10 µM [inhibitor, partial curve, poor fit].
In the case of `CCOc1ccc(CNC(=O)CCCn2ccc3cc(S(=O)(=O)N4CCCC4)ccc32)cc1`, the “activity, negative = inhibition” value is reported as inactive: -31.1%.
For `COc1cccc(-c2nc3cc(SC)ccc3cc2CN(C(=O)c2csc(C)n2)C2CC2)c1`, the Potency was inconclusive: 28.2 µM [inhibitor, partial curve, poor fit].
With `O=C(NCCc1ccc(Cl)cc1)c1ccc(CS(=O)(=O)Cc2ccccc2F)o1` the Potency was inconclusive: 39.8 µM [inhibitor, partial curve, poor fit].
For `Cc1cccc(N/C=C/C(=O)c2cccs2)c1C`, the Potency was inconclusive: 17.8 µM [inhibitor, single point].
In the case of `CC(=O)c1ccccc1NS(C)(=O)=O`, the Potency is reported as inconclusive: 25.1 µM [inhibitor, single point].
For `COc1ccc(NC(=O)c2cccc(S(=O)(=O)N(C)c3ccccc3)c2)cn1`, the Potency was inconclusive: 35.5 µM [inhibitor, partial curve, poor fit].
For `COc1ccc(N2CCN(c3cc(C)c4ccc(O)cc4n3)CC2)cc1`, the Potency was inconclusive: 12.6 µM [inhibitor, partial curve, poor fit].
In the case of `Nc1ccc(-c2ccc(N)cc2C(F)(F)F)c(C(F)(F)F)c1`, the “activity, negative = inhibition” value is reported as inactive: -18.9%.
In the case of `Cc1ccc(-n2c(O)c(/C=N/Nc3ccc(S(=O)(=O)N4CCOCC4)cc3[N+](=O)[O-])c3ccccc3c2=O)c(C)c1`, the Potency is reported as inconclusive: 10 µM [inhibitor, partial curve, poor fit].
In the case of `CCc1nnc(NC(=O)CSc2nccn2-c2cccc(C)c2)s1`, the Potency is reported as inconclusive: 39.8 µM [inhibitor, partial curve, poor fit].
With `CN(C)c1ccc(/C=N/OC(=O)Nc2ccccc2)cc1` the Potency was inconclusive: 17.8 µM [inhibitor, single point].
For `Cc1nn(Cc2ccc(Cl)cc2Cl)c(Cl)c1C(=O)NC1CCCc2ccccc21` (centres undefined), the Potency was inconclusive: 20 µM [inhibitor, partial curve, poor fit].
For `O=C(CN1CCN(Cc2ccccc2Cl)CC1)N/N=C/C=C\c1ccccc1[N+](=O)[O-]`, the Potency was inconclusive: 4.47 µM [inhibitor, partial curve].
In the case of `O=C(NCCCn1ccnc1)c1nn2c(C(F)(F)F)cc(-c3ccc(Br)cc3)nc2c1Cl`, the Potency is reported as inconclusive: 35.5 µM [inhibitor, partial curve, poor fit].
In the case of `COc1cc(/C=N/NC(N)=S)cc(Br)c1OCc1ccccc1F`, the “activity, negative = inhibition” value is reported as inactive: -30.1%.
For `Cc1ccc(-c2csc(Nc3ccccn3)n2)cc1`, the Potency was inconclusive: 12.6 µM [inhibitor, single point].
With `CN(C)S(=O)(=O)c1ccc(C(=O)N2CCN=C2SCc2cccnc2)cc1` the Potency was inconclusive: 12.6 µM [inhibitor, partial curve].
For `COc1ccc(CSc2nc3ccccc3[nH]2)cc1`, the Potency was inconclusive: 15.8 µM [inhibitor, single point].
For `O=C(Nc1cccc(S(=O)(=O)c2cccc(NC(=O)c3ccco3)c2)c1)c1ccco1`, the Potency was inconclusive: 35.5 µM [inhibitor, partial curve, poor fit].
With `CCCOc1ccc(C(=O)C(CN2CCCC2)c2ccccc2)cc1` (centres undefined) the Potency was inconclusive: 17.8 µM [inhibitor, partial curve, poor fit].
For `O=C1c2sc3nc4n(c(=O)c3c2CCC1Br)CCCCC4` (centres undefined), the Potency was inconclusive: 39.8 µM [inhibitor, single point].
In the case of `CN(C)c1ccc(C(c2nnnn2CCOC(=O)Nc2ccc(Cl)cc2)N2CCOCC2)cc1` (centres undefined), the activity, negative = inhibition is reported as inconclusive: -33.6% [inhibitor].
With `COc1ccc(C2CC(=O)c3cnc(N4CCN(Cc5ccccc5)CC4)nc3C2)cc1` (centres undefined) the Potency was inconclusive: 22.4 µM [inhibitor, partial curve, poor fit].
For `CCOc1ccc(-n2c(SCC(=O)N3CCCCC3)nc3c([nH]c4ccccc43)c2=O)cc1`, the activity, negative = inhibition was inconclusive: -34.4% [inhibitor].
In the case of `O=C(CSc1ccccc1)Nc1ccccc1N1CCOCC1`, the Potency is reported as inconclusive: 20 µM [inhibitor, single point].
For `Cc1cc(NC2CCCC2)n2ncc(-c3ccccc3)c2n1`, the Potency was inconclusive: 39.8 µM [inhibitor, single point].
With `O=C1CCCc2[nH]c3cccc(/C(=C/c4ccccc4)c4ccccc4)c3c21` the Potency was inconclusive: 10 µM [inhibitor, partial curve].
In the case of `COc1ccc(S(=O)(=O)N2CCCN(CCC(=O)Nc3cccc(C(F)(F)F)c3)CC2)cc1`, the “activity, negative = inhibition” value is reported as inactive: -27.1%.
With `Cc1ccc(NC(=O)/C=C/c2ccc(S(=O)(=O)N3CCOCC3)cc2)cc1S(=O)(=O)N(C)C` the Potency was inconclusive: 35.5 µM [inhibitor, partial curve, poor fit].
With `COc1ccc(NC(=O)CSc2c3c(nc4ccccc24)CCCC3)c(OC)c1` the Potency was inconclusive: 35.5 µM [inhibitor, single point].
In the case of `Cn1nnnc1Sc1ncnc2scc(-c3ccc(Br)cc3)c12`, the Potency is reported as inconclusive: 17.8 µM [inhibitor, partial curve, poor fit].
For `COC(=O)C1=C(O)CSC1=Nc1cccc(C(F)(F)F)c1`, the Potency was inconclusive: 39.8 µM [inhibitor, single point].
For `COc1ccc(OC)c(-c2cc(C(=O)Nc3cc(C)n(Cc4ccc(Cl)cc4)n3)no2)c1`, the Potency was inconclusive: 22.4 µM [inhibitor, partial curve, poor fit].
For `Cc1ccc2c(c1)c(-c1ccccc1)nc1nnnn12`, the Potency was inconclusive: 25.1 µM [inhibitor, partial curve, poor fit].
In the case of `Cc1cc(C)cc(N2C(=O)NC(=O)/C(=C\c3cccn3-c3ccc(Cl)cc3)C2=O)c1`, the Potency is reported as inconclusive: 8.91 µM [inhibitor, partial curve, poor fit].
With `CCOc1ccccc1NC(=O)c1nc(S(=O)(=O)Cc2ccccc2)ncc1Cl` the Potency was inconclusive: 31.6 µM [inhibitor, partial curve, poor fit].
With `COc1ccc(-c2csc(N3C(=O)CNC3=S)n2)cc1` the Potency was active: 10 µM.
With `Cc1ccc(NC(=O)Cn2c(=O)n(CCCCCC(=O)NCc3ccc(F)cc3)c(=O)c3sccc32)c(C)c1` the Potency was inconclusive: 17.8 µM [inhibitor, partial curve].
With `COc1ccc(Nc2nc(N)nc(CN3CCN(c4ccccn4)CC3)n2)cc1` the “activity, negative = inhibition” value was inactive: -45.2%.
With `COc1ccc(NC(=O)CN(C)C(=O)c2cccc(S(=O)(=O)N3CCN(c4ccccc4)CC3)c2)cc1` the “activity, negative = inhibition” value was inactive: -12%.
For `COc1ccc2cc(-c3cc(C(=O)OCC(=O)Nc4c(C)n(C)n(-c5ccccc5)c4=O)c4ccccc4n3)ccc2c1`, the Potency was inconclusive: 12.6 µM [inhibitor, partial curve, poor fit].
In the case of `COc1ccc(-c2cc(-c3ccc(Br)cc3)nc3ncnn23)cc1OC`, the Potency is reported as inconclusive: 14.1 µM [inhibitor, partial curve].
For `Cc1ccc(NC(=O)CN2C(=O)NC3(CCCCC3C)C2=O)cc1S(=O)(=O)N1CCCCC1` (centres undefined), the “activity, negative = inhibition” value was inactive: -32.2%.
For `C(=N\Nc1nc2ccccc2[nH]1)/c1ccccn1`, the Potency was inconclusive: 10 µM [inhibitor, partial curve, poor fit].
In the case of `O=C(Nc1ccc(Cc2ccncc2)cc1)c1ccc(S(=O)(=O)N2CCOCC2)cc1`, the Potency is reported as inconclusive: 17.8 µM [inhibitor, partial curve, poor fit].
With `CCCCn1c(SCc2ccc(Cl)cc2)nc2c1c(=O)[nH]c(=O)n2C` the Potency was inconclusive: 35.5 µM [inhibitor, partial curve, poor fit].
For `COc1ccc(/C=C2\CCc3ccccc3C2=O)cc1Cn1cccn1`, the Potency was inconclusive: 14.1 µM [inhibitor, single point].
With `CCN(C(=O)COC(=O)c1cc(-c2ccccc2)nc2ccc(Br)cc12)C1CCS(=O)(=O)C1` (centres undefined) the Potency was inconclusive: 2.51 µM [inhibitor, full curve].
In the case of `CC1(C(=O)Nc2ccc(Cl)c(Cl)c2)CCN1Cc1ccccc1OC(F)F` (centres undefined), the Potency is reported as inconclusive: 31.6 µM [inhibitor, partial curve, poor fit].
In the case of `COC(=O)c1ccc(Nc2ncnc3c2nc2n3CCCC2)cc1`, the Potency is reported as inconclusive: 17.8 µM [inhibitor, single point].
For `O=C(/C=C/c1ccc(OCCCF)cc1)Nc1ccnc(-c2cccnc2)n1`, the Potency was inconclusive: 10 µM [inhibitor, partial curve, poor fit].
For `Cc1ccc(OCc2ccc(C(=O)NCc3cccnc3)cc2)cc1C`, the Potency was inconclusive: 20 µM [inhibitor, single point].
